Assay results published in PubChem BioAssay AID2685 (National Center for Advancing Translational Sciences (NCATS), 2010).
The list shows a part of the results. Further columns of the screen follow, without active or inactive calls. Compounds called inactive in the main read-out are mostly missing here. The note in brackets gives the kind of curve behind each potency; many fits are weak.

Assay: qHTS Assay for Lipid Storage Modulators in Drosophila S3 Cells;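 as to cell number change: cells counted by Cell Tracker Red CMTPX staining in the red channel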
Conditions: BODIPY lipid droplet fluorescence, 18-24 h; for cell number change: measured here: cell count max response, cells fed with added oleic acid
Summary of the method: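 Drosophila S3 cells got compounds at several concentrations plus oleic acid (400 uM solution). Laser-scanning cytometry with 488 nm excitation read lipid droplets at 500-530 nm and cells at 575-640 nm. Percent activity was relative to 20 uM Triacsin C.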

[1] = measured here: cell number channel AC50, cells fed with added oleic acid
[2] = measured here: lipid fluorescence (Fed channel) AC50, cells fed with added oleic acid

| Compound | cell number change [%] | AC50 [1] | AC50 [2] |
| --- | --- | --- | --- |
| COc1ccc(CC(=O)N2CCN=C2SCc2ccc([N+](=O)[O-])cc2)cc1 | -74.6 | 29.1 µM [falling, partial curve, poor fit] |  |
| O=C(CSCc1ccc(Cl)cc1Cl)Nc1ccccc1C(=O)Nc1ccc(C(=O)O)cc1 | -50.7 | 29.1 µM [falling, single point] |  |
| O=C(Nc1cc(C(F)(F)F)ccc1Cl)c1ccc(NC(=O)C(F)(F)F)cc1 | -32.9 | 29.1 µM [falling, single point] | 29.1 µM [falling, single point] |
| C/C(=N\OC(=O)c1ccc(F)cc1)c1ccc(F)c(F)c1 | 1.94 |  | 0.00461 µM [falling, full curve, poor fit] |
| Cc1cccc2cc3c(NC(=O)CC(C)C)nn(C)c3nc12 | -6.19 |  |  |
| O=S(=O)(Nc1cc(S(=O)(=O)N2CCOCC2)ccc1NCC1CCCO1)c1ccc(F)cc1 (stereo not drawn) | 12.4 |  | 0.00461 µM [rising, full curve, poor fit] |
| O=C(c1ccco1)N1CCN(c2ncnc3scc(-c4cccs4)c23)CC1 |  | 0.92 µM [rising, partial curve] |  |
| CCCc1cc2c(-c3ccccc3)cc(=O)oc2cc1OCc1ccc(C(=O)O)o1 | -2.15 |  | 0.231 µM [falling, partial curve, poor fit] |
| Fc1ccc(COc2ccc(/C=N/n3cnnc3)cc2)cc1 | -1.05 |  | 0.103 µM [rising, full curve, poor fit] |
| Cc1[nH]c2ccccc2c1C(c1ccncc1)N1CCN(c2ccc(F)cc2)CC1 (stereo not drawn) | 64.8 | 13 µM [rising, partial curve, poor fit] |  |
| CSc1nsc(SCC(=O)Nc2ccc(F)cc2F)n1 | 20.8 | 2.31 µM [rising, single point] |  |
| Cc1ccc(C)c(NC(=S)N/N=C2/CCCCc3ccccc32)c1 | -10.4 |  | 2.59 µM [rising, partial curve] |
| O=c1[nH]c(CN2CCN(C/C=C/c3ccccc3)CC2)nc2cc(Cl)ccc12 | -14.4 |  | 0.231 µM [falling, full curve, poor fit] |
| COc1ccc(NS(=O)(=O)c2cc(C(=O)Nc3ccccc3C(=O)O)ccc2C)cc1 | 6.04 |  | 6.51 µM [rising, single point] |
| O=C(CCN1CCN(c2ccccn2)CC1)Nc1ccc(F)cc1 | -2.79 |  | 2.59 µM [rising, single point] |
| Cc1ccc(S(=O)(=O)N2CCCC(C(=O)O)C2)s1 (stereo not drawn) | 51.7 | 23.1 µM [rising, partial curve] |  |
| N#Cc1ccccc1OCC(=O)Nc1ccc2c(c1)OCCO2 | -8.29 |  | 0.366 µM [rising, full curve, poor fit] |
| COc1ccc(NC(=O)CC2C(=O)N(c3cccc(OC)c3)C(=O)N2CCC(C)C)cc1 (stereo not drawn) | 75.7 | 16.4 µM [rising, partial curve] | 29.1 µM [rising, single point] |
| COc1cccc(C(c2sc3nc(C)nn3c2O)N2CCc3ccccc3C2)c1 (stereo not drawn) |  | 2.31 µM [rising, partial curve] | 6.51 µM [rising, single point] |
| COc1ccc(C2(CNC(=O)c3ccccc3[N+](=O)[O-])CCOCC2)cc1 | -9.24 |  |  |
| COc1ccc(CN(C)C(=O)c2cccc(NS(=O)(=O)c3ccccc3)c2)c(OC)c1 | 15 |  |  |

| Compound | cell number change [%] | AC50 [1] | AC50 [2] |
| --- | --- | --- | --- |
| COc1ccc(/C=C/C(=O)NCCn2c(C)cc3ccccc32)cc1OC | 3.71 |  | 0.58 µM [rising, full curve] |
| CNC(=O)c1c[nH]n2c(=O)c(Cc3ccccc3F)c(C)nc12 | 11.5 |  |  |
| Cn1c(=O)c2c(nc3n2CCCN3CCc2ccccc2)n(C)c1=O | -22.4 | 6.51 µM [falling, single point] | 11.6 µM [falling, single point] |
| CSc1cccc(N/C(=N/S(=O)(=O)c2ccccc2)NN)c1 | 14.7 |  | 4.11 µM [rising, full curve, poor fit] |
| COc1ccc(CCNC(=O)COc2ccc(S(=O)(=O)NC3CCCCC3)cc2Cl)cc1 |  |  | 29.1 µM [falling, single point] |
| Cn1nc(C(F)(F)F)c2cc(C(=O)NC3CC3)sc21 | 40.9 | 29.1 µM [rising, single point] |  |
| CCCN(CC(=O)Nc1ccccc1OC)C(=O)C1CCCC1 |  |  | 0.116 µM [falling, full curve, poor fit] |
| COc1ccc(CCN2CC(C(=O)NCCN3CCOC3=O)CCC2=O)cc1 (stereo not drawn) | 10.4 |  | 29.1 µM [rising, single point] |
| O=C1C=C(/C=C/c2ccccc2)C[C@@H](c2ccc3c(c2)OCO3)C1 | 1.35 |  | 6.51 µM [falling, single point] |
| O=C(NCc1ccccn1)c1ccc(OC2CCN(Cc3ccccc3O)CC2)cc1 | 31.4 | 14.6 µM [rising, single point] |  |
| COc1ccc(C2C(C#N)=C(N)Oc3cc(O)ccc32)cc1C (stereo not drawn) | 19.9 |  |  |
| COc1ccc2oc(=O)cc(C)c2c1 | 21.1 |  |  |
| Cc1cc(C(=O)O)ccc1[N+](=O)[O-] | 5.65 |  | 0.0058 µM [falling, full curve, poor fit] |
| O=S(=O)(Nc1ccc(S(=O)(=O)Nc2ccccc2)cc1)c1ccccc1 | -21.8 |  |  |
| COc1ccc(S(=O)(=O)Nc2ccc(C(N)=O)cc2)cc1C(=O)N1CCCCCC1 | 28.2 |  | 2.59 µM [rising, full curve] |
| Cc1ccc(OCC(=O)Nc2ccccc2N2CCCC2)c(C)c1 | -16.3 |  | 23.1 µM [falling, single point] |
| O=S(=O)(NCc1ccc(Cl)cc1)c1cccc2cccnc12 | 6.27 |  |  |
| O=C(CCCCCN1C(=O)c2ccccc2C1=O)Nc1ccccc1 |  | 1.84 µM [rising, partial curve] | 2.06 µM [rising, partial curve] |
| Cc1ccc(Cn2ccsc2=NC(=O)COC(=O)C(C)C)cc1 | 22.7 |  |  |
| Cc1ccc(-c2noc(CCC(=O)N3CCCC3)n2)cc1 | 32.5 | 29.1 µM [rising, single point] |  |

Taken from the listing (three entries):

| Compound | cell number change [%] | AC50 [1] | AC50 [2] |
| --- | --- | --- | --- |
| COc1ccc2oc(=O)cc(C)c2c1 | 21.1 |  |  |
| Cc1cc(C(=O)O)ccc1[N+](=O)[O-] | 5.65 |  | 0.0058 µM [falling, full curve, poor fit] |
| O=S(=O)(Nc1ccc(S(=O)(=O)Nc2ccccc2)cc1)c1ccccc1 | -21.8 |  |  |
